Where a SMILES comes first, the peptide text is derived from it.
Assay: DSC, bilayer-to-hexagonal phase transition temperature (TH) of DiPoPE
Format: physicochemical

CC[C@H](C)[C@H](NC(=O)[C@H](CCCCN)NC(=O)[C@H](C)NC(=O)CNC(=O)[C@@H](NC(=O)[C@H](CCCCN)NC(=O)[C@@H](NC(=O)[C@H](CCCCN)NC(=O)[C@H](C)NC(=O)CNC(=O)[C@@H](NC(=O)[C@H](CCCCN)NC(=O)[C@@H](NC(=O)[C@H](CCCCN)NC(=O)[C@H](C)NC(=O)CNC(=O)[C@@H](NC(=O)[C@@H](N)CCCCN)[C@@H](C)CC)[C@@H](C)CC)[C@@H](C)CC)[C@@H](C)CC)[C@@H](C)CC)C(N)=O [(KIGAKI)3-NH2, K I G A K I K I G A K I K I G A K I -NH2] (H-KIGAKIKIGAKIKIGAKI-NH2)
effect on TH of DiPoPE (in words) (DSC): negligible effect | Linear Regression: slope of TH vs. mole fraction of peptide (DiPoPE, Table 3): 157 ± 142

From patent US20040249122A1, “Cationic, amphipathic beta-sheet peptides and uses thereof” (priority 2003, published 2004)
